We go through 25 targets from the supplement of paper PMC12819154, “High-throughput peptide-centric local stability assay extends protein–ligand identification to membrane proteins, tissues and bacteria” (Nature Structural & Molecular Biology, 2025).

Amino acid sequences for entries named in this document (tags omitted). A change or cut given only in a name is not applied to a line headed by its entry.
UniProt P70389: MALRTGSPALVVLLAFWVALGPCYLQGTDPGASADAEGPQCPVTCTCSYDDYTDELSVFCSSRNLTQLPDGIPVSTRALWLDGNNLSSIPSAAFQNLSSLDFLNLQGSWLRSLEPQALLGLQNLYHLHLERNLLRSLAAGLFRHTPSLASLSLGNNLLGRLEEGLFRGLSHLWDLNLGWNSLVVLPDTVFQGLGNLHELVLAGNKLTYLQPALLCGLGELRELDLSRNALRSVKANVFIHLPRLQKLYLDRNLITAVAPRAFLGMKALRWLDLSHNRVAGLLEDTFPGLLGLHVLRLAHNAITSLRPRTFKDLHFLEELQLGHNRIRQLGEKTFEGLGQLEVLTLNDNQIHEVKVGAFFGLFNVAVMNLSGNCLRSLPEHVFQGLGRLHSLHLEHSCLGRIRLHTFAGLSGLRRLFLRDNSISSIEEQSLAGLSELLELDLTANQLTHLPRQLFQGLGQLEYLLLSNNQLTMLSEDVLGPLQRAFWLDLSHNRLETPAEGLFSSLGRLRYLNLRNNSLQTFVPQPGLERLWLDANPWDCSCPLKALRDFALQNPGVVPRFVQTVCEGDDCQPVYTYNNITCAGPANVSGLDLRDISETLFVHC
UniProt P98063: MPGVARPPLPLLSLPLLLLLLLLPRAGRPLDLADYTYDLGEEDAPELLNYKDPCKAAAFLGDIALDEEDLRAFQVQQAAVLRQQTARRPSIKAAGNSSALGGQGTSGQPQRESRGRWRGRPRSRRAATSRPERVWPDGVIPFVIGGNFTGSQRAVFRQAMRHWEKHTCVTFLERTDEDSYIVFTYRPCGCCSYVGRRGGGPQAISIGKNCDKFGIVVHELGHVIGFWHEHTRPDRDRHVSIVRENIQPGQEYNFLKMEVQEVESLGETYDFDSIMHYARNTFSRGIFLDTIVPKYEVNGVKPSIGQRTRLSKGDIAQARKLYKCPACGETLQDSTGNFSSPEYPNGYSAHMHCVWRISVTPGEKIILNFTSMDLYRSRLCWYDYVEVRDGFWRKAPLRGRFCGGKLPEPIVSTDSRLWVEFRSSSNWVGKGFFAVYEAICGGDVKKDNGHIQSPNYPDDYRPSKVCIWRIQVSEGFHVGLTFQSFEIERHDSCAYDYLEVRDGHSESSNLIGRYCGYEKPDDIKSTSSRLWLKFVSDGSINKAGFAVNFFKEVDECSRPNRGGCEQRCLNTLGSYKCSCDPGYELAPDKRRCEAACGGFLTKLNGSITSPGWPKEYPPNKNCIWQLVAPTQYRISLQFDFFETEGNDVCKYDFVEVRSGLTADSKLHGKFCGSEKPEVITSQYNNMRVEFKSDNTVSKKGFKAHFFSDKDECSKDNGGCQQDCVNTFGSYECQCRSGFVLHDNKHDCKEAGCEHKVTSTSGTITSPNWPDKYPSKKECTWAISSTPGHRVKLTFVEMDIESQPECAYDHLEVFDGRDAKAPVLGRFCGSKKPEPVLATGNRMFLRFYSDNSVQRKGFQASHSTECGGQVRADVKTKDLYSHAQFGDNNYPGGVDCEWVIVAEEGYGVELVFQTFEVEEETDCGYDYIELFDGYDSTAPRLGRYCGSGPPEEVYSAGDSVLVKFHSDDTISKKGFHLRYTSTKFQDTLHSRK
UniProt P80315: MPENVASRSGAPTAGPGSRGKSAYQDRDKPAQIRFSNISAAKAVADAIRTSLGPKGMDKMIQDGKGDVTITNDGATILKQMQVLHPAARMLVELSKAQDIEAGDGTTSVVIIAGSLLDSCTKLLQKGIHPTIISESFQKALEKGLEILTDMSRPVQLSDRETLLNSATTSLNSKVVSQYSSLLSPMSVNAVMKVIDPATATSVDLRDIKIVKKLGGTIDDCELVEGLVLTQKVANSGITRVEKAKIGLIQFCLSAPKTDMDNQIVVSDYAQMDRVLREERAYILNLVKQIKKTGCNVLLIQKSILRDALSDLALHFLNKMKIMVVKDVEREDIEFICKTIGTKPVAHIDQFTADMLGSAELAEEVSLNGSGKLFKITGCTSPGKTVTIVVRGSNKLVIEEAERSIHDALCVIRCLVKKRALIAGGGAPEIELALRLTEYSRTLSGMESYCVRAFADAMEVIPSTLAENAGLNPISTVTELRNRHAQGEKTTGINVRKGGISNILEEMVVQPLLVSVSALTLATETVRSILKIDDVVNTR
UniProt Q00897: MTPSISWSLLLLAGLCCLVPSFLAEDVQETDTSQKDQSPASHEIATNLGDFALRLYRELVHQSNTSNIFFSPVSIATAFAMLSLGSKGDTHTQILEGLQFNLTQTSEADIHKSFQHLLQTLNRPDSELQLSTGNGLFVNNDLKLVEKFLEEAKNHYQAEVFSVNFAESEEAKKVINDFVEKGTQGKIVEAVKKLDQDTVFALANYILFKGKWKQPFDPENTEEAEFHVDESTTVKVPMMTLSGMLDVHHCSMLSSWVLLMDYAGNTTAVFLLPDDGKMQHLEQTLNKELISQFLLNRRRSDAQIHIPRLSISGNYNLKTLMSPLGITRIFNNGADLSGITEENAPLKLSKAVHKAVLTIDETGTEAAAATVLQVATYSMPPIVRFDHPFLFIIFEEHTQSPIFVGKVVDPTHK
UniProt P70353: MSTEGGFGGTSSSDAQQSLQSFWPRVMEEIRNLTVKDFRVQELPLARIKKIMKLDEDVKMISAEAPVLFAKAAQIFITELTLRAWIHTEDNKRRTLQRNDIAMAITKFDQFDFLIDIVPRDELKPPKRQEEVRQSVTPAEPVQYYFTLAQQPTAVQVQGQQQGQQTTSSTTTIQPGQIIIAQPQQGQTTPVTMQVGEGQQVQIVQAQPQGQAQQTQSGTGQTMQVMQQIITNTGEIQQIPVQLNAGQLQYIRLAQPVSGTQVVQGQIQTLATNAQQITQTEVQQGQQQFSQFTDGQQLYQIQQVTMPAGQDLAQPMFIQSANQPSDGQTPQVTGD
UniProt P70290: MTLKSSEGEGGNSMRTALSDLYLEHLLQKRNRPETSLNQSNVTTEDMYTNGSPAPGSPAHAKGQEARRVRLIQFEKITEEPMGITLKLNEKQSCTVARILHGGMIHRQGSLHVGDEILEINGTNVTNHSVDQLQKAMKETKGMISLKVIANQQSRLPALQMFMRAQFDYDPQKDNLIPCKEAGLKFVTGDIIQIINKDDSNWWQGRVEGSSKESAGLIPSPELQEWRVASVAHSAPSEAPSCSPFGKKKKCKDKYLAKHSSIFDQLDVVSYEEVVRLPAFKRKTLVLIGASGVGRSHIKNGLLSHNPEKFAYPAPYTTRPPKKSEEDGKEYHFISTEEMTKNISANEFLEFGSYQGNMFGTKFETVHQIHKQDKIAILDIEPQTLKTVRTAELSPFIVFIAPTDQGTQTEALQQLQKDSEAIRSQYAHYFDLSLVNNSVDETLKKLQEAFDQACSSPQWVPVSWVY
UniProt P70261: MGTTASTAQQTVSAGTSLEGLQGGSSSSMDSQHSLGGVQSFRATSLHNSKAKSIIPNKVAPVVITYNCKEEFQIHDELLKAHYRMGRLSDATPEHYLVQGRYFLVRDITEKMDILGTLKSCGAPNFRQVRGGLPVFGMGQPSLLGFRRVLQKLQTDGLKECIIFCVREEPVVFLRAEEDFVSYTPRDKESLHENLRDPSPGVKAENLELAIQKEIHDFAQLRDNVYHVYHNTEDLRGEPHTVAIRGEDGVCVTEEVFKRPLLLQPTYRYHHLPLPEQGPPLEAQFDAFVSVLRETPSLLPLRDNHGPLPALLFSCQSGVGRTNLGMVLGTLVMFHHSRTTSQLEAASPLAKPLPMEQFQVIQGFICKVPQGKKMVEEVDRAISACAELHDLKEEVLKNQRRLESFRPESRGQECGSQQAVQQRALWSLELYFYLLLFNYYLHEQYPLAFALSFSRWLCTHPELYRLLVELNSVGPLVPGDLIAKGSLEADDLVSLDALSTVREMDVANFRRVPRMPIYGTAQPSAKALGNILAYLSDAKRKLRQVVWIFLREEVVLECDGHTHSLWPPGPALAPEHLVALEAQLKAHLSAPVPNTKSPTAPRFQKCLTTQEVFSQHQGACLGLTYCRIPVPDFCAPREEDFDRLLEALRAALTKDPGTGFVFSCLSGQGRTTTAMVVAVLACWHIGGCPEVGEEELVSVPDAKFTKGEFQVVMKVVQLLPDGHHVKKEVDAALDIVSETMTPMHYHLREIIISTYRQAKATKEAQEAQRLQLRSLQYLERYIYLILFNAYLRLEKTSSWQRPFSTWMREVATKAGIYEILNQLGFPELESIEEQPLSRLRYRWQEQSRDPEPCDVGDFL
UniProt P80316, whole entry: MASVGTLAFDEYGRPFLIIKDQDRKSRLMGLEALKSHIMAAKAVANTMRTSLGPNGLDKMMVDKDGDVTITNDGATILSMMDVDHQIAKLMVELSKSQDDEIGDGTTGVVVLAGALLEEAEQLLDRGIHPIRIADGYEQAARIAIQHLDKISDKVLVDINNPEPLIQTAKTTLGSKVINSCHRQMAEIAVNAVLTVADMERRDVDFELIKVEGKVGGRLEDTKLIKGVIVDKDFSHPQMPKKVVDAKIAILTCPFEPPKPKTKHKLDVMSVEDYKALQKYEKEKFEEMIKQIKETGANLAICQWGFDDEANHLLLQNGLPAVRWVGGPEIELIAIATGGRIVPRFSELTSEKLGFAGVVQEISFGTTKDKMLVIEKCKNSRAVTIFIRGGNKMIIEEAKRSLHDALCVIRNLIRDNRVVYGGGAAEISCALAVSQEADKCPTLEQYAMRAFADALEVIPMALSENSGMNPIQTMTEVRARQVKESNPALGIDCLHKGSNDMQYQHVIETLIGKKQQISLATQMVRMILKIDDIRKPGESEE
UniProt P98192: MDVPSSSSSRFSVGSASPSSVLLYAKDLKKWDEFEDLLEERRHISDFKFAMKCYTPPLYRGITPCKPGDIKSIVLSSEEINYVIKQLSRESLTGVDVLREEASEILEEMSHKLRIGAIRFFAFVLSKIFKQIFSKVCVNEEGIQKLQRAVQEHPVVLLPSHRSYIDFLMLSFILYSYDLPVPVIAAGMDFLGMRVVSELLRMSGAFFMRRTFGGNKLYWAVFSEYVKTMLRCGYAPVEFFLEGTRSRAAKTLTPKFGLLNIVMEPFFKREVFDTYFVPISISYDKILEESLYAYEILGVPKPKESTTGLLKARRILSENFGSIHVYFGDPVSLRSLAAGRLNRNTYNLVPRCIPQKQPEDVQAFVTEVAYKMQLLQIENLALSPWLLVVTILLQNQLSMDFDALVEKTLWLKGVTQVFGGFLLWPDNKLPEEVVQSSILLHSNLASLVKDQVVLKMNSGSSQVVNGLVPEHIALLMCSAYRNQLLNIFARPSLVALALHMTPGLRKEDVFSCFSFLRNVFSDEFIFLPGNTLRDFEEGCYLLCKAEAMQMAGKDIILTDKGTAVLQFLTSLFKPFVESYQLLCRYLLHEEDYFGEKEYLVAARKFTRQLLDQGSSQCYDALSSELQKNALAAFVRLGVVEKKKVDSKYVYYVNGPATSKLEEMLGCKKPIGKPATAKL
UniProt P70182: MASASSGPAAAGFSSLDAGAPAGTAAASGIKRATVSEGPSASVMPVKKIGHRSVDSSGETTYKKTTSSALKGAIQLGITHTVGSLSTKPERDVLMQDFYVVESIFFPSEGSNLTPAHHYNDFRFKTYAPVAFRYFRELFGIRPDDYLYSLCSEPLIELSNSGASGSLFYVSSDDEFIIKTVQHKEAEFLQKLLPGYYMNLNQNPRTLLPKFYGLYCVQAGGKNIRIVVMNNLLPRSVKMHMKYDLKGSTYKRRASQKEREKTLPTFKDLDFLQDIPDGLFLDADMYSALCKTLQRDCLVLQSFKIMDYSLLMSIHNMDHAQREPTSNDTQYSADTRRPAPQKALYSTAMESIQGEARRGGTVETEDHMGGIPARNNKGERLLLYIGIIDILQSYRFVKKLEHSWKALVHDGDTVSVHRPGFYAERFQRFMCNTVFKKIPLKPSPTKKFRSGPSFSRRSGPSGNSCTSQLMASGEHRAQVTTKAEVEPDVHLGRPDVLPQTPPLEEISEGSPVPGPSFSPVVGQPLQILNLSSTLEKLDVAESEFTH
UniProt P97784: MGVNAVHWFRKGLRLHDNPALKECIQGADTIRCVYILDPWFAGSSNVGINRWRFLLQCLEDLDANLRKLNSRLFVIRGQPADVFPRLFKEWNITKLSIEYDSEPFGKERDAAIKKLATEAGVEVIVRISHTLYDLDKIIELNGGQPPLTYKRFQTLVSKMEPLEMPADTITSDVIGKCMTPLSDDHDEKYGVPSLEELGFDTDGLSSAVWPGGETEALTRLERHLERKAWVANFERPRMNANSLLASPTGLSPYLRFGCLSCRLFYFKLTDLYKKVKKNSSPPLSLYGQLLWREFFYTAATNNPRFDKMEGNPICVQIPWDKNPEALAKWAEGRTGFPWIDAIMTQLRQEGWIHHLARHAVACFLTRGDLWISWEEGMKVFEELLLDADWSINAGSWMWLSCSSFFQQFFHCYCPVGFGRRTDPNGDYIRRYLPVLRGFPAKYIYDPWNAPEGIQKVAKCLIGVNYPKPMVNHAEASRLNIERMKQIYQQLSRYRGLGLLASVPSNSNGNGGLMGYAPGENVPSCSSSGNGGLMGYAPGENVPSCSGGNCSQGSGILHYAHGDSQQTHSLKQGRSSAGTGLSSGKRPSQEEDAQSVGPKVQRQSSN

The list shows a part of the results. Small differences around the control level are noise.

Compound in this test: CN[C@@H]1C[C@H]2O[C@@](C)([C@@H]1OC)n1c3ccccc3c3c4c(c5c6ccccc6n2c5c31)C(=O)NC4 [staurosporine]
The test can be described thus: log2 fold change of tryptic peptide abundance, ligand vs vehicle (limited proteolysis) (log2 ratio); higher = more trypsin-susceptible (destabilized). The settings on record: ligand concentration: 20 uM; sample: mouse liver crude lysate; replicate design: treated separately.
For “UniProt P70694 (peptide sequence: PVCNQVECHPYLNQGK, peptide start residue: 186)”, the log2 fold change is 0.257.

For “UniProt P70389 (peptide sequence: AFWLDLSHNR, peptide start residue: 484)”, the log2 fold change stood at 0.34.

As to “UniProt P97801 (peptide sequence: HALKNGDICETPDKPK, peptide start residue: 49)”, the log2 fold change is 0.352.

Take “UniProt P70336 (peptide sequence: KYVIVSSKK, peptide start residue: 1173)”: the log2 fold change was -0.932.

On to “UniProt P70315 (peptide sequence: GLPAPGPGPTDKK, peptide start residue: 216)”, for which the log2 fold change is -0.576.

For “UniProt P97390 (peptide sequence: LVSAVVEYGGKR, peptide start residue: 422)”, the log2 fold change was 0.36.

As to “UniProt P98063 (peptide sequence: AFQVQQAAVLR, peptide start residue: 72)”, the log2 fold change is -0.046.

As for “UniProt P63154 (peptide sequence: FVLVHPAVK, peptide start residue: 208)”, the log2 fold change was determined as 0.499.

As for “UniProt P80315 (peptide sequence: GIHPTIISESFQK, peptide start residue: 127)”, the log2 fold change is -0.184.

Regarding “UniProt Q00897 (peptide sequence: SDAQIHIPR, peptide start residue: 300)”, the log2 fold change is 0.196.

“UniProt P97823 (peptide sequence: HFIDKLLPPID, peptide start residue: 220)”: the log2 fold change was -0.45.

On to “UniProt P70353 (peptide sequence: AWIHTEDNKR, peptide start residue: 84)”, for which the log2 fold change came to 0.494.

For “UniProt P70290 (peptide sequence: AQFDYDPQKDNLIPCK, peptide start residue: 165)”, the log2 fold change is -0.14.

As to “UniProt Q00420 (peptide sequence: QCMEIIESR, peptide start residue: 318)”, the log2 fold change was 0.143.

In the case of “UniProt P70210 (peptide sequence: AMNLDQVSK, peptide start residue: 111)”, the log2 fold change was found to be 0.241.

On to “UniProt P70261 (peptide sequence: AEEDFVSYTPR, peptide start residue: 176)”, for which the log2 fold change is -0.28.

For “UniProt P80316 (peptide sequence: QQISLATQMVR, peptide start residue: 515)”, the log2 fold change is -0.151.

On to “UniProt P69566 (peptide sequence: HQLSSLTVPELNSLNVSR, peptide start residue: 456)”, for which the log2 fold change was 0.261.

Consider “UniProt P70284 (peptide sequence: RAAEMELQAK, peptide start residue: 260)”, for which the log2 fold change was -0.126.

On to “UniProt P97798 (peptide sequence: GHESEDSMSTLAGRR, peptide start residue: 1248)”, for which the log2 fold change is 0.268.

Take “UniProt P70206 (peptide sequence: MVSEIYLTR, peptide start residue: 1672)”: the log2 fold change was 0.151.

For “UniProt P82198 (peptide sequence: NSLCIENSCIAAHDKR, peptide start residue: 470)”, the log2 fold change was -0.304.

On to “UniProt P98192 (peptide sequence: NTYNLVPR, peptide start residue: 344)”, for which the log2 fold change was 0.342.

“UniProt P70182 (peptide sequence: RATVSEGPSASVMPVKK, peptide start residue: 32)”: the log2 fold change is 0.395.

As for “UniProt P97784 (peptide sequence: RPSQEEDAQSVGPK, peptide start residue: 586)”, the log2 fold change came to 0.527.
